Measurements reported in publication PMC3795677.
Results are given in words; binding and its absence hold for the method and conditions named. Binding seen in cells or lysates may run through a third protein. For part of these data: Binding can be weak; no strength is given. Sequences can lack the tags named with a protein.

What was measured:
Assay in all cases: FRET or BRET; spectral-shift FRET by acceptor photobleaching in live E. coli cells co-expressing an mCFP and an mYFP fusion; mYFP bleached 20 s with a 532 nm laser; an increase of the CFP signal of more than 0.5 % counts as a positive FRET pair
[1] = target: T1, EvgS-mYFP (sensory histidine kinase EvgS with C-terminal monomeric yellow fluorescent protein EYFP A206K) (E. coli) (UniProt P30855)
T1 sequence: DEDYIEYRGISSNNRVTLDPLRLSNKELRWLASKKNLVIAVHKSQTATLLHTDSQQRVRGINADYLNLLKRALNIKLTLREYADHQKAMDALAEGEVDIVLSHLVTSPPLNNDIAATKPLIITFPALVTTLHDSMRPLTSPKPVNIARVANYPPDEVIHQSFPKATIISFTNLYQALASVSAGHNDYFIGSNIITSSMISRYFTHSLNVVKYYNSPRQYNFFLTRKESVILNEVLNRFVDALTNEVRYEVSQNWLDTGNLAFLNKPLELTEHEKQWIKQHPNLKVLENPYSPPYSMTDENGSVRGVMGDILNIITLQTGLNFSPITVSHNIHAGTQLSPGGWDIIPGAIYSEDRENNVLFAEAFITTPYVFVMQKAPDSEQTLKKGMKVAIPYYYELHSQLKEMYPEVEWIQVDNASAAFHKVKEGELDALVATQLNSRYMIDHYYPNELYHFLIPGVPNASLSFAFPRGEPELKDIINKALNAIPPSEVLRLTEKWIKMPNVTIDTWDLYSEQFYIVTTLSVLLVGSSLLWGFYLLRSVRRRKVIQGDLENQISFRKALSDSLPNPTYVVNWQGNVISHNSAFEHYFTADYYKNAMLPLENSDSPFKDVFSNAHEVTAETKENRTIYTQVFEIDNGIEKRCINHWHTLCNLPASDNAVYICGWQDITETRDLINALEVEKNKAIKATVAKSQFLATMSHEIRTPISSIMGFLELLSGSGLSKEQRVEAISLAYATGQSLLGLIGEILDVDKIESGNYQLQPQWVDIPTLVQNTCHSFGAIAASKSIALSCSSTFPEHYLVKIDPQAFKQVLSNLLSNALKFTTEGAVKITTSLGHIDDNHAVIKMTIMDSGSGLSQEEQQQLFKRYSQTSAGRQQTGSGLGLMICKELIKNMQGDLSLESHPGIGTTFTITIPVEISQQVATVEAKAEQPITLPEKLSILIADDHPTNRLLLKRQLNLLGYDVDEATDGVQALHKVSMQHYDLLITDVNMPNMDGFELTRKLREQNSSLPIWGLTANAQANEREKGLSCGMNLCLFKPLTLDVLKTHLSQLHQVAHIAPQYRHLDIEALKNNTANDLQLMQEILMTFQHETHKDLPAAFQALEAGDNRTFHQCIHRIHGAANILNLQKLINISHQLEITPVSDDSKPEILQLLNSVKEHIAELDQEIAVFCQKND

[2] = target: T2, TorS-mYFP (sensory histidine kinase TorS with C-terminal monomeric yellow fluorescent protein EYFP A206K) (E. coli) (UniProt P39453)
T2 sequence: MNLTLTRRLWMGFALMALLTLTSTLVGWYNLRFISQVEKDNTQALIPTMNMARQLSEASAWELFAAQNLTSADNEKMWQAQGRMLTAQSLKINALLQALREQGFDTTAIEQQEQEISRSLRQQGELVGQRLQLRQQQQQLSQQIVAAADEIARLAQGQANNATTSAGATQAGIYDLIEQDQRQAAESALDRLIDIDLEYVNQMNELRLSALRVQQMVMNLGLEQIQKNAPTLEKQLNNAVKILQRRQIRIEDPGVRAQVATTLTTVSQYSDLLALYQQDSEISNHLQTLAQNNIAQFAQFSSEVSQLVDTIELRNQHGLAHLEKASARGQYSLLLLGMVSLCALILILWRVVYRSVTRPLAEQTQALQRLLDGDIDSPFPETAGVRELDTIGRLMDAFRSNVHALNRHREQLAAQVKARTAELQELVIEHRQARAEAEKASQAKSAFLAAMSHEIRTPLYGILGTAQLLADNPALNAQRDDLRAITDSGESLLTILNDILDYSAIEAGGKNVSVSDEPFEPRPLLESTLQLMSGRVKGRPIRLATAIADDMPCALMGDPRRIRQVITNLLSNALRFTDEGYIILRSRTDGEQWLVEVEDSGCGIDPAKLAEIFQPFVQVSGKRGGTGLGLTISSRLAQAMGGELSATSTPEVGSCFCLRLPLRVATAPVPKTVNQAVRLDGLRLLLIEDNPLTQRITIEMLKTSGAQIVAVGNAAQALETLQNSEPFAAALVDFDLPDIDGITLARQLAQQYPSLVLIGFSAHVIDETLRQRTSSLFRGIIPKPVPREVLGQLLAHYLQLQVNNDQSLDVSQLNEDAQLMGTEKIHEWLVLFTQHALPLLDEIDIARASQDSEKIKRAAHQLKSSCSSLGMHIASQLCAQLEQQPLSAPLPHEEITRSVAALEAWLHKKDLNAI

[3] = target: EvgS-mCFP (EvgS with C-terminal monomeric cyan fluorescent protein ECFP A206K) (E. coli) (UniProt P30855)

## EvgS-mCFP (EvgS with C-terminal monomeric cyan fluorescent protein ECFP A206K) (from UniProt P30855)
[1]
  binding: binds

## TorS-mCFP (TorS with C-terminal monomeric cyan fluorescent protein ECFP A206K) (from UniProt P39453)
[2]
  binding: binds

B1: EvgA-mYFP (response regulator EvgA fused to monomeric yellow fluorescent protein) (protein, UniProt P0ACZ4 1-204)
chain: MNAIIIDDHPLAIAAIRNLLIKNDIEILAELTEGGSAVQRVETLKPDIVIIDVDIPGVNGIQVLETLRKRQYSGIIIIVSAKNDHFYGKHCADAGANGFVSKKEGMNNIIAAIEAAKNGYCYFPFSLNRFVGSLTSDQQKLDSLSKQEISVMRYILDGKDNNDIAEKMFISNKTVSTYKSRLMEKLECKSLMDLYTFAQRNKIG
[3]
  binding: no binding
